Earlier results, collected in US7902196B2, “Synthesis of avrainvillamide, strephacidin B, and analogues thereof” (President and Fellows of Harvard College, priority 2005, dated 2011).
Some results were stated once for a whole list of compounds, not compound by compound.

System: cultured human cancer cells
Conditions: reported values, read-out: IC50 (anti-proliferative activity); cited from earlier work

Question: With `CC1(C)C=Cc2c(ccc3c2[N+]([O-])=C2C3=C[C@@]34NC(=O)[C@]5(CCCN5C3=O)C[C@H]4C2(C)C)O1` [avrainvillamide] as the compound, how does the IC50 read?
Answer: Its IC50 is 50 to 100 nM.

Question: Which IC50 does the source give for `CC1(C)C=Cc2c(ccc3c2[N+]([O-])=C2C(C)(C)[C@@H]4C[C@]56CCCN5C(=O)C4(NC6=O)C4N5C(=O)C67CCCN6C(=O)[C@]56C(C7)C(C)(C)c5c(c7ccc8c(c7n5O)C=CC(C)(C)O8)[C@H]6C234)O1` (some centres unmarked) [stephacidin B] here?
Answer: The IC50 was 50 to 100 nM.
